The supplement of paper PMC12889115
The list shows a part of the results. Values are raw readings; no control value is given beside them.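 Primary screen: polymyxin B was added at a level permeabilizing Salmonella outer membranes while sparing inner membranes. DMSO wells, both with and without polymyxin B, established maximum growth. Plate-to-plate variation meant each plate was ranked on its own, and the lowest-OD600 compounds were selected as hits.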

System: Salmonella enterica serovar Typhimurium SL1344
Assay: bacterial growth OD600 after 18 h with compound and polymyxin B; higher = more bacterial growth (less inhibition)
Details: 50 µM, Mueller-Hinton broth

Row | Structure (SMILES) | bacterial growth OD600 (polymyxin B 0.75 µg/mL) | bacterial growth OD600 (polymyxin B 1 µg/mL)
1 | O=C1N(CC2CCCCC2)CCCC1(O)CNC1CCC1 (stereo unspecified) | 0.993 | –
2 | COCc1ccc(C(=O)NCc2cccnc2N(C)C2CCCCC2)o1 | – | 0.756
3 | CCc1ocnc1C(=O)NC1CC(=O)N(CCc2cccc(Cl)c2)C1 (stereo unspecified) | – | 0.033
4 | COc1ccc(OC)c(-c2nc(CN3CCCC3c3nonc3C)c(C)o2)c1 (stereo unspecified) | – | 0.976
5 | CC#CCN1C(=O)NC(CCc2ccccc2)(C2CCN(Cc3ccc(CC)o3)CC2)C1=O (stereo unspecified) | 0.714 | –
6 | Cc1nonc1OCCNC(=O)c1csc2nc(-c3ccccc3)cn12 | – | 1.17
7 | CSc1cccc(CNC(C)c2cnn(-c3ccccc3)c2C)c1 (stereo unspecified) | 0.769 | –
8 | CCOC(=O)N1CCN(C(=O)c2ccc(N3CCC(NCc4cc(C)no4)CC3)cc2)CC1 | 0.86 | –
9 | O=C(CCc1ccccc1)Nc1ccnn1C1CCN(S(=O)(=O)c2cccnc2)CC1 | 0.806 | –
10 | CSCCC(=O)N1CCC(C(=O)Nc2ccc(Oc3ccccc3F)cc2)CC1 | – | 0.73
11 | CC(=O)C1CCCN(C(=O)c2cn(Cc3cccc(C(F)(F)F)c3)nn2)C1 (stereo unspecified) | – | 0.872
12 | O=C(c1csc2nc(-c3cccc(F)c3)cn12)N1CCCC(CN2CCCC2)C1 (stereo unspecified) | – | 1.17
13 | CN(Cc1ccc2nccnc2c1)Cc1c(C(=O)N(C)Cc2ccccc2)nc2ccccn12 | – | 1.08
14 | COc1ccc(CN2CCOc3ccc(C(O)Cc4ccccc4)cc3C2)c(OC)c1OC (stereo unspecified) | 0.674 | –
15 | COc1cccc(CC(C2CCN(C(=O)/C=C/c3ccc(F)cc3)CC2)N(C)C(=O)CC(C)C)c1 (stereo unspecified) | 0.002 | –
16 | Cc1nc2cc(OCc3cc(C(=O)N4CCCCCCC4)no3)ccc2s1 | 0.004 | –

Part of the list above, with each value named.
CCOC(=O)N1CCN(C(=O)c2ccc(N3CCC(NCc4cc(C)no4)CC3)cc2)CC1
  bacterial growth OD600 (polymyxin B 0.75 µg/mL): 0.86
O=C(CCc1ccccc1)Nc1ccnn1C1CCN(S(=O)(=O)c2cccnc2)CC1
  bacterial growth OD600 (polymyxin B 0.75 µg/mL): 0.806

Following part.

Row | Structure (SMILES) | bacterial growth OD600 (polymyxin B 0.75 µg/mL) | bacterial growth OD600 (polymyxin B 1 µg/mL)
17 | CC(C)CC(=O)Nc1ccnn1C1CCN(C(=O)C(=O)CC(C)C)CC1 | 0.861 | –
18 | COC(=O)CCC(=O)NC1CCCN(CCc2ccccc2)C1 (stereo unspecified) | – | 1.01
19 | CCOC(=O)C1(Cc2ccccc2F)CCCN(C(=O)c2cc(C3CC3)on2)C1 (stereo unspecified) | – | 0.005
20 | CC1CN(C(=O)c2csc3nc(-c4ccc(C(F)(F)F)cc4)cn23)CCN1C (stereo unspecified) | – | 0.987
21 | COc1ccc(C(=O)N(C)CC2CCN(CCc3ccccc3OC)CC2)cc1F | – | 1.21
22 | O=C1CCC(C(=O)N2CCOc3ccccc3C2)CN1CCN1CCOCC1 (stereo unspecified) | – | 0.742
23 | CCC(=O)N[C@@H]1c2ccccc2C2(CCN(C(=O)c3ccc(C#CC(C)(C)O)cc3)CC2)[C@H]1OC | 0.712 | –
24 | Cc1oc(-c2ccc(C(F)(F)F)cc2)nc1CN1CCN(C(=O)c2ccco2)CC1 | – | 0.734
25 | COc1cccc(C(C)N(C)C(=O)c2cn(Cc3ccc(Cl)cc3)nn2)c1 (stereo unspecified) | – | 0.6
26 | CSCCC(=O)N1CCC(C2CCN(CCc3ccccc3)CC2)C1 (stereo unspecified) | – | 0.941
27 | COc1ccc(OC2CCN(C3CCCC3)CC2)c(C(=O)NC2CCOC(C)(C)C2)c1 (stereo unspecified) | – | 1.2
28 | O=C(c1ccccc1)C1CCN(C(=O)C2CCC(=O)N(CCCc3ccccc3)C2)CC1 (stereo unspecified) | – | 1.08
29 | Cc1ncc2c(c1CNC(=O)c1ccsc1)CCN(C(=O)/C=C/c1ccc(Cl)cc1)C2 | 0.951 | –
30 | CC(C)CCNC(=O)c1cn(C2CCCC2)cc(C(=O)N2CCN(c3ccccc3O)CC2)c1=O | 0.876 | –
31 | Cc1cc(C)cc(C(=O)N2CCC(CCC(=O)NC3CC3)CC2)c1 | – | 1.1
